PubChem BioAssay AID1259425, University of Nebraska Medical Center, 2018
Shown is a random part of about 14,000 reagents. Further read-outs or replicates are left out here. No sequences are given here. Not stated in the record: the time to read-out.

Purpose: 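Compare each knockdown with KSR1 silencing using changes in marker transcripts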 (primary screen)
System: HCT116 human colon cancer cells
Reagent: siRNA pool against human genes, 50 nM siRNA
Detection: 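After 50 nM siRNA pool, branched-DNA assay measures six marker transcripts per well, minus blank, normalised to the geometric mean of two housekeeping transcripts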
Direction: BNIP3L mRNA: higher = more BNIP3L transcript after knockdown; NDRG1 mRNA: higher = more NDRG1 transcript after knockdown

How did the screen score EXT2?
BNIP3L mRNA, set 1: 0.247; NDRG1 mRNA, set 1: 0.245

With GALNT7, what was measured?
BNIP3L mRNA, set 1: 0.123; NDRG1 mRNA, set 1: 0.0787

For CCP110, what was measured?
BNIP3L mRNA, set 1: 0.0626; NDRG1 mRNA, set 1: 0.194

With SORBS1, what does the deposit list?
BNIP3L mRNA, set 1: 0.0753; NDRG1 mRNA, set 1: 0.064

For ENO2, what was measured?
BNIP3L mRNA, set 1: 0.0895; NDRG1 mRNA, set 1: 0.207

For NDUFAF4, what does the deposit list?
BNIP3L mRNA, set 1: 0.104; NDRG1 mRNA, set 1: 0.144

Which result is listed for COLGALT2?
BNIP3L mRNA, set 1: 0.0859; NDRG1 mRNA, set 1: 0.664

With MYL11, how do the results read?
BNIP3L mRNA, set 1: 0.185; NDRG1 mRNA, set 1: 0.38

For BSN, what does the deposit list?
BNIP3L mRNA, set 1: 0.094; NDRG1 mRNA, set 1: 0.328

What is on record for TRIM13?
BNIP3L mRNA, set 1: 0.0762; NDRG1 mRNA, set 1: 0.101

With SYT3, what was measured?
BNIP3L mRNA, set 1: 0.217; NDRG1 mRNA, set 1: 0.171

How did the screen score DNAJB14?
BNIP3L mRNA, set 1: 0.142; NDRG1 mRNA, set 1: 0.196

What is on record for SYT11?
BNIP3L mRNA, set 1: 0.25; NDRG1 mRNA, set 1: 0.135

For SLC47A1, what was measured?
BNIP3L mRNA, set 1: 0.0699; NDRG1 mRNA, set 1: 0.157

For SUSD5, what was measured?
BNIP3L mRNA, set 1: 0.0811; NDRG1 mRNA, set 1: 0.406

For DAXX, what does the deposit list?
BNIP3L mRNA, set 1: 0.064; NDRG1 mRNA, set 1: 0.0968

How did the screen score AKAP9?
BNIP3L mRNA, set 1: 0.084; NDRG1 mRNA, set 1: 0.105

What is on record for FN3K?
BNIP3L mRNA, set 1: 0.136; NDRG1 mRNA, set 1: 0.347

Which result is listed for KAT2A?
BNIP3L mRNA, set 1: 0.0875; NDRG1 mRNA, set 1: 0.149

Records above whose gene name starts with S or s (5):
SORBS1 | BNIP3L mRNA, set 1 = 0.0753; NDRG1 mRNA, set 1 = 0.064
SYT3 | BNIP3L mRNA, set 1 = 0.217; NDRG1 mRNA, set 1 = 0.171
SYT11 | BNIP3L mRNA, set 1 = 0.25; NDRG1 mRNA, set 1 = 0.135
SLC47A1 | BNIP3L mRNA, set 1 = 0.0699; NDRG1 mRNA, set 1 = 0.157
SUSD5 | BNIP3L mRNA, set 1 = 0.0811; NDRG1 mRNA, set 1 = 0.406
